Source: PubChem BioAssay AID485314 (National Center for Advancing Translational Sciences (NCATS), 2010)
Screen size: about 340,000 compounds; about 4,500 (1.3%) were called active. The shares of active, inactive and inconclusive entries below differ from those in the screen. Calls follow the shape of the dose curve; as a rule, active = well fitted inhibition curve with a large enough effect; inconclusive = small, poorly fitted or top-dose-only effect, or another doubt; inactive = no such curve, though single readings can be large or run the other way. Potencies of inconclusive entries are doubtful fits and often do not repeat.

Molecular target: DNA polymerase beta (Homo sapiens) (UniProt P06746)
Assay: qHTS Assay for Inhibitors of DNA Polymerase Beta
Details: Pol beta primer extension/strand displacement, fluorescence kinetic; activity change, negative = inhibition: at 114 µM (top of the series)
Procedure, shortened: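 Reaction started by 50 nM substrate onto compound-treated Pol beta (10 nM, 15 min preincubation, room temperature); plates read at 0 min and 10 min. Normalized concentration-effect data fitted by four-parameter Hill equation.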
% is scaled to controls: 0 for no effect and ±100 for the full control effect; potency is read from the fitted curve at half-maximal effect.

Q: For `O=C1CCCC(O)=C1Sc1ccccc1C(=O)O`, which Potency is on record?
A: active: 10 µM

Q: With `Cc1ccc(S(=O)(=O)Nc2cc(=O)[nH]c(SCC(=O)Nc3cccc(C(F)(F)F)c3)n2)cc1` as the compound, how does the Potency read?
A: inactive

Q: With `Nc1c(C(=O)c2ccc(Cl)cc2)oc2ccccc12` as the compound, how does the Potency read?
A: inconclusive: 35.5 µM [inhibitor, full curve]

Q: With `Cc1c(C(=O)NCc2cccc(Br)c2)oc2ccc3c(c12)C(=O)CC(C)(C)O3` as the compound, how does the Potency read?
A: inactive

Q: Which Potency does the source give for `Fc1ccc(-c2[nH]ncc2-c2nnnn2-c2ccccc2)c(F)c1` here?
A: inactive

Q: With `CCN(CC)CCCNC(=O)c1ccc(Cn2c(SCc3ccccc3)nc3cccnc32)cc1` as the compound, how does the Potency read?
A: inactive

Q: Which Potency does the source give for `CC1CCCN(S(=O)(=O)c2cccc3nonc23)C1` (stereo not drawn) here?
A: inconclusive: 39.8 µM [inhibitor, single point]

Q: Which Potency does the source give for `COc1ccc(-c2nc3sc(CCNC(=O)C(=O)Nc4cccc(NC(C)=O)c4)c(C)n3n2)cc1` here?
A: active: 12.6 µM

Q: How did the Potency turn out when `CCn1c2ccccc2c2cc(NC(=O)CSc3nnc(-c4cccc(Cl)c4)o3)ccc21` was run?
A: inconclusive: 28.2 µM [inhibitor, single point]

Q: `COc1c(C)cccc1C(=O)Nc1ccc(-c2nc3ccccc3s2)c(Cl)c1` was tested. Which Potency did it give?
A: inconclusive: 25.1 µM [inhibitor, partial curve, poor fit]

Q: `Cc1ccc(NC(=O)CC2Oc3ccccc3NC2=O)cc1C` (stereo not drawn) was tested. Which Potency did it give?
A: inactive

Q: Which Potency does the source give for `Cc1cccc(NC(=O)Cn2c(O)c(N=NC(=O)c3ccccc3O)c3ccccc32)c1` here?
A: active: 15.8 µM

Q: How did the Potency turn out when `Cc1cccc(C2c3[nH]c4ccccc4c3CCN2C(=O)Cc2nc(-c3ccccc3)n[nH]2)n1` (stereo not drawn) was run?
A: inconclusive: 39.8 µM [inhibitor, single point]

Q: How did the Potency turn out when `O=[N+]([O-])c1ccc2c(c1)N([O-])C1(CCCCC1)[N+]2=O` was run?
A: inactive

Q: For `CC1=C(c2ccc(F)cc2)S(=O)(=O)N=C1N1CCC(C(=O)NCCc2cccc(C)c2)CC1`, which Potency is on record?
A: inconclusive: 39.8 µM [inhibitor, full curve, poor fit]

Q: Which Potency does the source give for `CCCCC(C(=O)NC(C)c1ccccc1)C(=O)NC(C)c1ccccc1` (stereo not drawn) here?
A: inconclusive: 79.4 µM [inhibitor, single point]

Q: `Oc1ccc(/C=N/Nc2ccnc3cc(Cl)ccc23)c(O)c1O` was tested. Which Potency did it give?
A: active: 14.1 µM

Q: For `CCOc1ccc(NC(=O)C(C)C(Cc2ccc(C)cc2)C(=O)O)cc1` (stereo not drawn), which Potency is on record?
A: inactive

Q: `O=[N+]([O-])c1ccccc1NC1CCN(Cc2ccccc2)CC1` was tested. Which activity change, negative = inhibition did it give?
A: inconclusive: -34.6% [inhibitor]

Q: `COc1cccc(C(=O)Nc2cccc(-c3ccccc3)c2)c1` was tested. Which Potency did it give?
A: inconclusive: 25.1 µM [inhibitor, single point]

Q: Which Potency does the source give for `O=C(NCc1ccc2c(c1)CCN2C(=O)c1ccccc1)Nc1cccc(C(F)(F)F)c1` here?
A: inactive

Q: Which Potency does the source give for `COc1ccc(Cn2ccnc2SCC(=O)Nc2nc3ccccc3s2)cc1` here?
A: inconclusive: 31.6 µM [inhibitor, single point]

Q: `CCOC(=O)c1c(CC(C)C)csc1N` was tested. Which Potency did it give?
A: inconclusive: 79.4 µM [inhibitor, partial curve]

Q: For `CCc1ccc(NC(=O)CN2C(=O)c3cccc4cccc2c34)cc1`, which Potency is on record?
A: inactive

Q: Which Potency does the source give for `Cc1cccc(NC(=O)C2CCCN2S(=O)(=O)c2ccc3nc(-c4ccccc4)[nH]c3c2)c1` (stereo not drawn) here?
A: inconclusive: 11.2 µM [inhibitor, full curve]

Q: `O=C(O)c1ccc(/C=N/N2CCN(c3ccccc3)CC2)cc1` was tested. Which Potency did it give?
A: inconclusive: 89.1 µM [inhibitor, single point]

Q: How did the Potency turn out when `COc1cc(Cl)c(NC(=O)c2cc3ccccn3n2)c(OC)c1` was run?
A: inconclusive: 70.8 µM [inhibitor, partial curve, poor fit]

Q: For `CC(=O)Nc1ccc(-c2ccc(NC(C)=O)c(O)c2)cc1O`, which Potency is on record?
A: inconclusive: 50.1 µM [inhibitor, partial curve]

Q: How did the activity change, negative = inhibition turn out when `Cc1ccc2c(c1)c1c(c(=O)n(-c3ccccc3)c(=O)n1CC(=O)NCC1CCCO1)n2C` (stereo not drawn) was run?
A: inconclusive: -47.1% [inhibitor]

Q: For `CCCOc1ccc(C2C(C(=O)/C=C/c3ccco3)=C(O)C(=O)N2CCN2CCOCC2)cc1OC` (stereo not drawn), which Potency is on record?
A: inconclusive: 39.8 µM [inhibitor, partial curve]

Q: `CNc1nc2sc3c(c2c(=O)n1C)CC(C)(C)SC3` was tested. Which Potency did it give?
A: inconclusive: 89.1 µM [inhibitor, single point]

Q: With `N#C/C(=C\c1ccc(OC(=O)c2ccc(Cl)s2)cc1)c1nc2ccccc2[nH]1` as the compound, how does the Potency read?
A: inconclusive: 1.58 µM [inhibitor, full curve]

Q: Which Potency does the source give for `CCCN(CCC)c1ccc(C2N=C(N)Nc3nc4ccccc4n32)cc1` (stereo not drawn) here?
A: inconclusive: 70.8 µM [inhibitor, single point]

Q: For `CCOc1ccccc1CNC(=O)C1CCCN(c2nn3c(=O)cc(C)nc3s2)C1` (stereo not drawn), which Potency is on record?
A: inconclusive: 70.8 µM [inhibitor, single point]

Q: Which Potency does the source give for `Cc1c(C(=O)N(C)C2CC(C)(C)NC(C)(C)C2)oc2c(F)cccc12` here?
A: inactive

Q: `Cn1c(=O)oc2cc(S(=O)(=O)CCC(=O)N3CCN(c4cccc(Cl)c4)CC3)ccc21` was tested. Which Potency did it give?
A: inactive

Q: For `COCCCNC(=O)Cn1cnc2sc(C)c(S(=O)(=O)N3CCC(C)CC3)c2c1=O`, which Potency is on record?
A: inactive

Q: Which Potency does the source give for `CC(C)NC(=O)c1ccc(Cn2c(SCC(N)=O)nc3ccccc3c2=O)cc1` here?
A: inconclusive: 89.1 µM [inhibitor, single point]

Q: How did the Potency turn out when `CCCCCn1c(=O)[nH]c2cc(C(=O)Nc3ccc(OC)cc3)ccc2c1=O` was run?
A: inactive

Q: With `CCn1c(SCC(=O)O)nnc1-c1cc2c(C)nn(-c3ccccc3)c2s1` as the compound, how does the Potency read?
A: inactive

Q: `CCOc1ccc(C2CC(=O)Nc3nc(SCc4ccccc4C)[nH]c(=O)c32)cc1OC` (stereo not drawn) was tested. Which Potency did it give?
A: inactive

Q: How did the Potency turn out when `N=C(N)SCc1cn(-c2ccccc2)nc1-c1ccc(Br)cc1` was run?
A: inconclusive: 89.1 µM [inhibitor, single point]

Q: How did the Potency turn out when `Cc1nnc(SCC(=O)c2cc(C)n(C3CC3)c2C)s1` was run?
A: inactive

Q: For `Nc1cccc2c1C(=O)N(C(=O)/C=C/c1cccc(F)c1)C2=O`, which Potency is on record?
A: inactive

Q: Which Potency does the source give for `CCC(=O)N1C(=O)CCN(C(C)=O)c2ccccc21` here?
A: inconclusive: 39.8 µM [inhibitor, single point]

Q: With `O=C(NN=C1CCCC1)c1cc(O)cc(O)c1` as the compound, how does the Potency read?
A: active: 20 µM

Q: For `Cc1ccccc1C(=O)N1CCN(c2ccc(NC(=O)c3ccccc3[N+](=O)[O-])cc2)CC1`, which Potency is on record?
A: inconclusive: 63.1 µM [inhibitor, partial curve, poor fit]

Q: With `CC(=C/C(=O)O)/C=C/c1ccc(Cl)o1` as the compound, how does the Potency read?
A: active: 12.6 µM

Q: For `N#Cc1ccccc1S(=O)(=O)Nc1ccc2c(c1)C(=O)OC2`, which Potency is on record?
A: inactive

Q: `COc1ccc(NC(=O)c2ccc(-c3ccc([N+](=O)[O-])cc3)o2)cc1` was tested. Which Potency did it give?
A: inconclusive: 31.6 µM [inhibitor, partial curve]

Q: How did the Potency turn out when `O=[N+]([O-])c1cc(Cl)cc(/C=N/NC(=S)Nc2ccc(S(=O)(=O)N3CCOCC3)cc2)c1O` was run?
A: inconclusive: 50.1 µM [inhibitor, partial curve]

Q: How did the Potency turn out when `CC1=NOC(=O)/C1=C\c1ccc(-c2ccc(Br)cc2C(=O)O)o1` was run?
A: active: 12.6 µM

Q: With `O=C(Nc1cccc(C(F)(F)F)c1)c1ccc2c(c1)nnn2C1CCCC1` as the compound, how does the Potency read?
A: inactive

Q: `COCCNC(=O)CN(C(=O)CCC(=O)Nc1ccccn1)c1ccc(OC)cc1` was tested. Which Potency did it give?
A: inactive

Q: Which Potency does the source give for `CCn1cc2nc(SCc3cc(C)ccc3C)n(CCc3ccccc3)c(=O)c2n1` here?
A: inactive

Q: For `Nc1nnc(-c2cc3c(ccc4ccccc43)oc2=O)s1`, which Potency is on record?
A: active: 22.4 µM

Q: With `C=CCOC(=O)c1cc(-c2ccc(/C=C3\C(=O)NC(=O)C(C#N)=C3C)o2)ccc1Cl` as the compound, how does the Potency read?
A: active: 12.6 µM

Q: How did the Potency turn out when `COc1ccc(C2=NN(c3nc4ccccc4s3)C(=O)/C2=C\N(C)C)cc1` was run?
A: inactive

Q: Which Potency does the source give for `COc1ccc(-n2c(SCC(=O)NCc3ccco3)nc3sc4c(c3c2=O)CCN(C)C4)cc1` here?
A: inconclusive: 89.1 µM [inhibitor, single point]

Q: For `CN(C)c1ccc(CNS(=O)(=O)c2ccc(-c3cc(C(F)(F)F)on3)s2)cc1`, which Potency is on record?
A: inconclusive: 44.7 µM [inhibitor, partial curve, poor fit]

Q: For `O=C(O)CCC(=O)N1N=C(c2ccco2)CC1c1cccs1` (stereo not drawn), which Potency is on record?
A: inconclusive: 31.6 µM [inhibitor, single point]

Q: How did the Potency turn out when `COc1cc2nc(N(CCN(C)C)C(=O)c3ccc4ccccc4c3)sc2cc1OC` was run?
A: inconclusive: 39.8 µM [inhibitor, single point]

Q: For `COc1ccc(CNC(=O)C2CCN(c3nnc(-n4c(C)ccc4C)s3)CC2)c(OC)c1`, which Potency is on record?
A: inactive

Q: `CC1(C)O[C@H]2OC([C@H](O)CON3C(=O)c4ccccc4C3=O)[C@H](O)[C@H]2O1` (stereo partly drawn) was tested. Which Potency did it give?
A: inconclusive: 89.1 µM [inhibitor, single point]

Q: Which Potency does the source give for `CCOC(=O)C1=C(C)OC(N)=C(C#N)C1c1cc2c(cc1Br)OCO2` (stereo not drawn) here?
A: inconclusive: 31.6 µM [inhibitor, partial curve]

Q: For `CC1C/C(=N\NC(N)=S)c2cc(Cl)ccc2S1` (stereo not drawn), which Potency is on record?
A: inactive

Q: How did the Potency turn out when `O=C(Cn1c(C(=O)NCC2CCCO2)cc2sccc21)c1ccccc1` (stereo not drawn) was run?
A: inconclusive: 39.8 µM [inhibitor, partial curve]

Q: How did the Potency turn out when `COc1ccc(NC(=O)CSc2nc(-c3cc(OC)c(OC)c(OC)c3)[nH]c2-c2ccc(F)cc2)cc1` was run?
A: inactive

Q: How did the Potency turn out when `Cc1nc(N=Nc2cc(S(=O)(=O)O)c3cc([N+](=O)[O-])cc(S(=O)(=O)O)c3c2)c(COP(=O)(O)O)c(C=O)c1O` was run?
A: active: 2.82 µM

Q: How did the Potency turn out when `COc1ccc2c(c1)c(=O)oc1cc3occ(C(C)(C)C)c3cc12` was run?
A: inconclusive: 39.8 µM [inhibitor, partial curve]

Q: How did the Potency turn out when `Cc1ccc2cccc(OCC(=O)N3CCc4ccccc43)c2n1` was run?
A: inconclusive: 25.1 µM [inhibitor, full curve, poor fit]

Q: For `O=C(NNC(=O)C1CC1)c1ccccc1[N+](=O)[O-]`, which activity change, negative = inhibition is on record?
A: inconclusive: -32.1% [inhibitor]
